Our source for the binding values is article PMC5719394.

This assay concerns the target T1, Flag-tagged NLRP11 (FL) (human) (UniProt P59045).
T1 sequence: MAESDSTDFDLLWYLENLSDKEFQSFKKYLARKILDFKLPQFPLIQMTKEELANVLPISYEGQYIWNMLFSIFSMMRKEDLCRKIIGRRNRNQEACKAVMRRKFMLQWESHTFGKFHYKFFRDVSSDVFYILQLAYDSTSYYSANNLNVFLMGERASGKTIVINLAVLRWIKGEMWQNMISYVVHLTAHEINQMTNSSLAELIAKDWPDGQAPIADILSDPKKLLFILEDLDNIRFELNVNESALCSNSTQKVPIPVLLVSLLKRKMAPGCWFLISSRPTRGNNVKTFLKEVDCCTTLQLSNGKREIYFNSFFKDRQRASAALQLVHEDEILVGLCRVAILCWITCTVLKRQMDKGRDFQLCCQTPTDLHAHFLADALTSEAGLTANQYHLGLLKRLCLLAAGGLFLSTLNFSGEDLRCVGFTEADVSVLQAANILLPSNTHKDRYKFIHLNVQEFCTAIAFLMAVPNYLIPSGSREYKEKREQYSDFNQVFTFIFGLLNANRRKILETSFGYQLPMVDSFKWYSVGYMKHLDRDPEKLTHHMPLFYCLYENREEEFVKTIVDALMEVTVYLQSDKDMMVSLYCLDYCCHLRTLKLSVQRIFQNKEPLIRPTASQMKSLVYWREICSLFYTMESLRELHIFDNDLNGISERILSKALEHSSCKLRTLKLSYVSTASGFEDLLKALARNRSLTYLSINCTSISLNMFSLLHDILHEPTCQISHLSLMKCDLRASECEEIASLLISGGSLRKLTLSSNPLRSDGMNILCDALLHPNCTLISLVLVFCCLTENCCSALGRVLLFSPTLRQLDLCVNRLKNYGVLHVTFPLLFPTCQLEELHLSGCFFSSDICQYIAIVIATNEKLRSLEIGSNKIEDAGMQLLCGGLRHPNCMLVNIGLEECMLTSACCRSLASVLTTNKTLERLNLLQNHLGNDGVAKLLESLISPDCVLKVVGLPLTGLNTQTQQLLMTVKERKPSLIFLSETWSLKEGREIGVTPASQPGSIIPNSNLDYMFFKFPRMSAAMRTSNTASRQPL
Put plainly: co-IP; 293T cells co-transfected with tagged proteins; lysates in low-salt buffer; anti-Flag or anti-HA beads, 4 °C overnight, five washes; immunoblot. In general terms: A western blot detects proteins with antibodies after separation by electrophoresis.

Results are given in words; binding and its absence hold for the method and conditions named. In cells and extracts the contact can be indirect. Some results given as binding are weak or reduced against the parent protein; the word gives no strength. Sequences can lack the tags named with a protein.

B1: GFP-RNF19A (enzyme, UniProt Q9NV58 1-838)
chain: MQEQEIGFISKYNEGLCVNTDPVSILTSILDMSLHRQMGSDRDLQSSASSVSLPSVKKAPKKRRISIGSLFRRKKDNKRKSRELNGGVDGIASIESIHSEMCTDKNSIFSTNTSSDNGLTSISKQIGDFIECPLCLLRHSKDRFPDIMTCHHRSCVDCLRQYLRIEISESRVNISCPECTERFNPHDIRLILSDDVLMEKYEEFMLRRWLVADPDCRWCPAPDCGYAVIAFGCASCPKLTCGREGCGTEFCYHCKQIWHPNQTCDAARQERAQSLRLRTIRSSSISYSQESGAAADDIKPCPRCAAYIIKMNDGSCNHMTCAVCGCEFCWLCMKEISDLHYLSPSGCTFWGKKPWSRKKKILWQLGTLVGAPVGIALIAGIAIPAMIIGIPVYVGRKIHNRYEGKDVSKHKRNLAIAGGVTLSVIVSPVVAAVTVGIGVPIMLAYVYGVVPISLCRSGGCGVSAGNGKGVRIEFDDENDINVGGTNTAVDTTSVAEARHNPSIGEGSVGGLTGSLSASGSHMDRIGAIRDNLSETASTMALAGASITGSLSGSAMVNCFNRLEVQADVQKERYSLSGESGTVSLGTVSDNASTKAMAGSILNSYIPLDKEGNSMEVQVDIESKPSKFRHNSGSSSVDDGSATRSHAGGSSSGLPEGKSSATKWSKEATAGKKSKSGKLRKKGNMKINETREDMDAQLLEQQSTNSSEFEAPSLSDSMPSVADSHSSHFSEFSCSDLESMKTSCSHGSSDYHTRFATVNILPEVENDRLENSPHQCSISVVTQTASCSEVSQLNHIAEEHGNNGIKPNVDLYFGDALKETNNNHSHQTMELKVAIQTEI
For the molecule B1, the binding result is reported as “binds”.
